Measurements reported in the supplement of paper PMC11409438.
Counter-ions that a name gives are not always drawn. This is one part of the list. Many values rest on one well or one pass, so single values are uncertain.

Legend:
[1] = tested on: Caenorhabditis elegans ST65 (ncIs13[ajm-1::GFP]); experiment: 'Larvae/adult' ratio (MetaXpress pharynx counts; minimum value 1, so it appears to include adults; growth inhibition read-out); conditions: 10 µM; exposure time: 4-5 days from L1 at 20°C
[2] = tested on: Caenorhabditis elegans ST65 (ncIs13[ajm-1::GFP]); experiment: vulvae per adult worm (MAPK/ERK-dependent vulval induction, MetaXpress) (vulvae/adult); higher = more vulval induction (less MAPK/ERK inhibition); conditions: 10 µM; exposure time: 4-5 days from L1 at 20°C

| SMILES | 'Larvae/adult' ratio [1] | vulvae per adult worm [2] |
| --- | --- | --- |
| Cc1cnc(NC(=O)Nc2cc(Br)c(C)cc2OC[C@@H]2CNCCO2)cn1 | 2.36 | 0.972 |
| CC(C)C[C@H](NC(=O)[C@H](CCc1ccccc1)NC(=O)CN1CCOCC1)C(=O)N[C@@H](Cc1ccccc1)C(=O)N[C@@H](CC(C)C)C(=O)[C@@]1(C)CO1 [Carfilzomib (PR-171)] | 1.89 | 1 |
| N#CCNC(=O)c1ccc(-c2ccnc(Nc3ccc(N4CCOCC4)cc3)n2)cc1 [Momelotinib (CYT387)] | 2.21 | 0.792 |
| O=C(Nc1cccc(Nc2ncc(Br)c(NCCc3cnc[nH]3)n2)c1)N1CCCC1 | 1.54 | 0.708 |
| Nc1nc(Cl)nc2c1ncn2[C@H]1C[C@H](O)[C@@H](CO)O1 [Cladribine] | 2.56 | 1.06 |
| O=C(O)c1ccc(-c2c[nH]c3ncc(-c4ccccc4)cc23)cc1C1CCCC1 | 1.95 | 1 |
| CC(C)Cn1cnc2c(N)nc3ccccc3c21 [Imiquimod] | 2.03 | 1.07 |
| C[C@H](Nc1ncnc2nc[nH]c12)c1cc2cccc(Cl)c2c(=O)n1-c1ccccc1 [Duvelisib (IPI-145, INK1197)] | 2.41 | 0.864 |
| COc1cc2c(cc1OCCCN1CCCC1)N=C(N)C21CCC1 | 1.62 | 1.06 |
| O=C(Nc1cnn2ccc(N3CCC[C@@H]3c3cc(F)ccc3F)nc12)N1CC[C@H](O)C1 [Larotrectinib (LOXO-101) sulfate] | 2.52 | 0.931 |
| COc1cc2c(Oc3ccc(NC(=O)C4(C(=O)Nc5ccc(F)cc5)CC4)cc3F)ccnc2cc1OCCCN1CCOCC1 | 2.8 | 0.6 |
| CC(=O)Nc1cccc(-n2c(=O)n(C3CC3)c(=O)c3c(Nc4ccc(I)cc4F)n(C)c(=O)c(C)c32)c1 | 1.82 | 0.0714 |
| O=C1CCC(N2C(=O)c3ccccc3C2=O)C(=O)N1 (stereo unspecified) [Thalidomide] | 2.23 | 1.17 |
| CCCN(CCC)C(=O)C1=Cc2ccc(-c3ccc(C(=O)N4CCCC4)cc3)cc2N=C(N)C1 [Motolimod (VTX-2337)] | 1.84 | 0.889 |
| CCN(CC)CCOc1ccc(C(=C(Cl)c2ccccc2)c2ccccc2)cc1 [Clomifene citrate] | 3.24 | 0.429 |
| COc1ccc(S(=O)(=O)Nc2cccnc2Nc2ccc(O)cc2)cc1 | 1.52 | 0.81 |
| CCc1cnn2c(NCc3ccc[n+]([O-])c3)cc(N3CCCC[C@H]3CCO)nc12 | 1.54 | 0.0769 |
| CC[C@H](NC(=O)[C@H](C)NC)C(=O)N1C[C@@H](O)C[C@H]1Cc1c(-c2[nH]c3cc(F)ccc3c2C[C@@H]2C[C@H](O)CN2C(=O)[C@H](CC)NC(=O)[C@H](C)NC)[nH]c2cc(F)ccc12 [Birinapant] | 1.61 | 1.05 |
| Nc1ccn([C@@H]2O[C@H](CO)[C@@H](O)[C@@H]2O)c(=O)n1 [Cytarabine] | 1.71 | 0.868 |
| COc1ccccc1S(=O)(=O)Nc1ccc2c(c1)CN(C)C(=O)N2 | 3.42 | 1.26 |
| Cn1cnc2c(F)c(Nc3ccc(Br)cc3Cl)c(C(=O)NOCCO)cc21 [Selumetinib (AZD6244)] | 2.41 | 1 |

| SMILES | 'Larvae/adult' ratio [1] | vulvae per adult worm [2] |
| --- | --- | --- |
| O=C(Nc1nc2cccc(-c3ccc(CN4CCS(=O)(=O)CC4)cc3)n2n1)C1CC1 [Filgotinib (GLPG0634)] | 2.17 | 1.08 |
| Cc1cc(Nc2ncnc3ccc(NC4=NC(C)(C)CO4)cc23)ccc1Oc1ccn2ncnc2c1 [Irbinitinib (ARRY-380, ONT-380)] | 2.39 | 1.11 |
| CC(C)C[C@H](NC(=O)[C@@H](Cc1cccc2ccccc12)NC(=O)[C@H](Cc1ccc(O)cc1)NC(=O)[C@H](CO)NC(=O)[C@H](Cc1c[nH]c2ccccc12)NC(=O)[C@H](Cc1cnc[nH]1)NC(=O)[C@@H]1CCC(=O)N1)C(=O)N[C@@H](CCCNC(=N)N)C(=O)N1CCC[C@H]1C(=O)NCC(N)=O [Nafarelin Acetate] | 2.3 | 0.889 |
| O=c1[nH]c(C2CCCN2)nc2c1oc1ccc(Cl)cc12 (stereo unspecified) | 1.98 | 0.867 |
| CNC(=O)c1nn(C)c2c1C(C)(C)Cc1cnc(Nc3ccc(N4CCN(C)CC4)cc3)nc1-2 | 4.91 | 0.818 |
| CC(=O)O[C@H]1C(=O)[C@@]2(C)[C@H]([C@H](OC(=O)c3ccccc3)[C@]3(O)C[C@H](OC(=O)[C@H](O)[C@@H](NC(=O)c4ccccc4)c4ccccc4)C(C)=C1C3(C)C)[C@]1(OC(C)=O)CO[C@@H]1C[C@@H]2O [Paclitaxel] | 1.78 | 1.11 |
| CN(C)Cc1ccc(S(=O)(=O)n2ccc(/C=C/C(=O)NO)c2)cc1 [Resminostat] | 3.27 | 0.577 |
| Nc1ccccc1NC(=O)c1ccc(CNc2nccc(-c3cccnc3)n2)cc1 [Mocetinostat (MGCD0103)] | 1.59 | 1.06 |
| C#Cc1cccc(Nc2ncnc3cc(OCCOC)c(OCCOC)cc23)c1 [Erlotinib] | 1.69 | 0.75 |
| NC(=O)Nc1cc(-c2cccc(F)c2)sc1C(=O)N[C@H]1CCCNC1 | 1.59 | 0.588 |
| Cc1cnc(Nc2ccc(OCCN3CCCC3)cc2)nc1Nc1cccc(S(=O)(=O)NC(C)(C)C)c1 | 1.77 | 0.745 |
| CNc1nc(Nc2cn(C(C)(C)C#N)nc2C)ncc1C(F)(F)F | 2.56 | 1.03 |
| CC/C(=C(\c1ccccc1)c1ccc(OCCN(C)C)cc1)c1ccccc1 [Tamoxifen] | 1.76 | 0.978 |
| CN(CC(=O)N(Cc1ccc(C2CCCCC2)cc1)c1ccc(C(=O)O)cc1)S(=O)(=O)c1c(F)c(F)c(F)c(F)c1F | 2 | 0.878 |
| CCN1C(=O)CNc2ncc(-c3ccc(-c4nc[nH]n4)nc3C)nc21 | 2.12 | 0.909 |
| Cc1ccc(F)c(NC(=O)Nc2ccc(-c3cccc4[nH]nc(N)c34)cc2)c1 [Linifanib (ABT-869)] | 1.9 | 0.8 |
| C[C@@H](Oc1ccc2[nH]nc(/C=C/c3cnn(CCO)c3)c2c1)c1c(Cl)cncc1Cl | 2.15 | 0.273 |
| CN1CCN(c2nc(C3=C(c4c[nH]c5ccccc45)C(=O)NC3=O)c3ccccc3n2)CC1 [Sotrastaurin] | 2.02 | 0.943 |
| CN(C)C(=O)c1cc2cnc(Nc3ccc(N4CCNCC4)cn3)nc2n1C1CCCC1 [Ribociclib (LEE011)] | 2.5 | 0.833 |
| N[C@@H]1CCCN(c2c(/C=C3\SC(=O)NC3=O)cccc2-c2ccccc2)C1 | 2.17 | 1 |
| Cc1cc2c(C(=O)NC[C@H](C)c3ccccc3)c(O)c(O)cc2c(O)c1-c1c(C)cc2c(C(=O)NC[C@H](C)c3ccccc3)c(O)c(O)cc2c1O [Sabutoclax] | 2.81 | 0.75 |

| SMILES | 'Larvae/adult' ratio [1] | vulvae per adult worm [2] |
| --- | --- | --- |
| NC(=S)N/N=C/c1ncccc1N [Triapine] | 1.25 | 1 |
| C=CC(=O)Nc1cccc(Nc2nc(Nc3ccc(N4CCN(C(C)=O)CC4)cc3OC)ncc2C(F)(F)F)c1 [Rociletinib (CO-1686, AVL-301)] | 1.6 | 0.771 |
| COc1nc(N)nc2c1ncn2[C@@H]1O[C@H](CO)[C@@H](O)[C@@H]1O [Nelarabine] | 2.22 | 1.03 |
| Cc1[nH]c2ccccc2c1CCNCc1ccc(/C=C/C(=O)NO)cc1 [Panobinostat (LBH589)] | 2.02 | 0.915 |
| Cc1ncc(Cl)cc1NCc1ccc(C(=O)N[C@@H](CC2CCCC2)C(=O)NC2CC2)s1 | 4.86 | 0.429 |
| C[C@H](Nc1ncnc2[nH]cnc12)c1cc2ccc(F)cc2nc1-c1ccccn1 | 3.81 | 1.75 |
| CO[C@H]1C[C@@H]2CC[C@@H](C)[C@@](O)(O2)C(=O)C(=O)N2CCCC[C@H]2C(=O)O[C@H]([C@H](C)C[C@@H]2CC[C@@H](O)[C@H](OC)C2)CC(=O)[C@H](C)/C=C(\C)[C@@H](O)[C@@H](OC)C(=O)[C@H](C)C[C@H](C)/C=C/C=C/C=C/1C [Rapamycin (Sirolimus)] | 2.33 | 1.14 |
| Cc1cccc(CC(=O)N2CCc3c2ccc(-c2cn(C)c4ncnc(N)c24)c3F)n1 | 1.76 | 0.759 |
| CC(C)n1nc(-c2ccc3oc(N)nc3c2)c2c(N)ncnc21 [Sapanisertib (INK 128, MLN0128)] | 1.94 | 0.394 |
| Cc1cc([C@@H](C)Nc2ccccc2C(=O)O)c2nc(N3CCOCC3)cc(=O)n2c1 | 2.06 | 0.969 |
| COc1cc2ncnc(Nc3ccc(F)c(Cl)c3)c2cc1OCCCN1CCOCC1 [Gefitinib (ZD1839)] | 2.19 | 1.25 |
| CC(O)c1cc(C(=O)N[C@@H](C)Cn2ccc(-c3ccc(C#N)c(Cl)c3)n2)n[nH]1 (stereo partly specified) [Darolutamide (ODM-201)] | 2 | 1.09 |
| Oc1nc(-c2ccc(C(F)(F)F)cc2)nc2c1CSCC2 | 1.51 | 0.843 |
| Cc1ccc(NC(=O)c2ccc(CN3CCN(C)CC3)cc2)cc1Nc1nc(-c2cccnc2)cs1 [Masitinib (AB1010)] | 1.52 | 0.731 |
| Cc1cccc(-c2[nH]c(CNc3ccccc3F)nc2-c2ccc3ncnn3c2)n1 [Vactosertib ?(TEW-7197)] | 1.75 | 1.12 |
| Cc1cccc(-c2nn3c(c2-c2ccnc4ccc(C(N)=O)cc24)CCC3)n1 | 1.74 | 0.971 |
| CCNc1nc(Nc2cc(F)c(C(=O)N3CCOCC3)cc2OC)ncc1C(F)(F)F | 3.57 | 1.43 |
| CCC(C)(C)C(=O)O[C@H]1C[C@@H](C)C=C2C=C[C@H](C)[C@H](CC[C@@H]3C[C@@H](O)CC(=O)O3)[C@H]21 [Simvastatin] | 1.33 | 0.917 |
| Cn1cc(-c2ccc(F)c(C(F)(F)F)c2)nc1C1CCN(c2ncnc3[nH]ncc23)CC1 | 2.65 | 0.968 |
| O=C(O)c1ccc2c(c1)nc(Nc1cccc(Cl)c1)c1ccncc12 [Silmitasertib (CX-4945)] | 4.16 | 1 |
| CN1CCN(CCOc2cc(OC3CCOCC3)c3c(Nc4c(Cl)ccc5c4OCO5)ncnc3c2)CC1 [Saracatinib (AZD0530)] | 3.08 | 1.31 |

In the list so far, these contain a CF3 group.

| SMILES | 'Larvae/adult' ratio [1] | vulvae per adult worm [2] |
| --- | --- | --- |
| CNc1nc(Nc2cn(C(C)(C)C#N)nc2C)ncc1C(F)(F)F | 2.56 | 1.03 |
| C=CC(=O)Nc1cccc(Nc2nc(Nc3ccc(N4CCN(C(C)=O)CC4)cc3OC)ncc2C(F)(F)F)c1 [Rociletinib (CO-1686, AVL-301)] | 1.6 | 0.771 |
| Oc1nc(-c2ccc(C(F)(F)F)cc2)nc2c1CSCC2 | 1.51 | 0.843 |
| CCNc1nc(Nc2cc(F)c(C(=O)N3CCOCC3)cc2OC)ncc1C(F)(F)F | 3.57 | 1.43 |
| Cn1cc(-c2ccc(F)c(C(F)(F)F)c2)nc1C1CCN(c2ncnc3[nH]ncc23)CC1 | 2.65 | 0.968 |

Single entries from above.
Oc1nc(-c2ccc(C(F)(F)F)cc2)nc2c1CSCC2 – 'Larvae/adult' ratio [1]: 1.51
Cc1ccc(NC(=O)c2ccc(CN3CCN(C)CC3)cc2)cc1Nc1nc(-c2cccnc2)cs1 [Masitinib (AB1010)] – 'Larvae/adult' ratio [1]: 1.52
